Some results were stated once for a whole list of compounds, not compound by compound.
How the values were obtained:
human EP1 receptor = target: T1, human EP1 receptor (Homo sapiens, UniProt P34995); test: human EP1 calcium mobilisation assay (FLIPR, CHO-K1 cells); assay type: cell-based; details: antagonism of PGE2-induced calcium mobilisation, CHO-K1 cells expressing EP1; averages of a number of experiments
T1 construct: expressed in transfected cells; host or cells: CHO-K1 cells, pCIN vector
T1 sequence (P34995 1-402): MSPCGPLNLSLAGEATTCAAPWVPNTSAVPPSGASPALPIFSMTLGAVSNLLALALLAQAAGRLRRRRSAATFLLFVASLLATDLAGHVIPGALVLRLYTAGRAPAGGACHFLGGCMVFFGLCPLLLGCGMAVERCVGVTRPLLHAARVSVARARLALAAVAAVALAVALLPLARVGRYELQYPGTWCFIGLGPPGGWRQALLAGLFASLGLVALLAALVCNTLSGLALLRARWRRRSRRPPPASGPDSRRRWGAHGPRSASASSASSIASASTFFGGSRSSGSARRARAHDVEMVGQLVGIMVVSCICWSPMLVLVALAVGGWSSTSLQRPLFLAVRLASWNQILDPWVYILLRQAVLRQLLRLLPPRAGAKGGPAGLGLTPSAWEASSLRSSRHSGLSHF
Method: (§1) Biological Activity at EP1 and EP3 Receptors
(§2) Briefly, the antagonist properties of compounds are assessed by their ability to inhibit the mobilisation of intracellular calcium ([Ca^2+]i) in response to activation of EP1 or EP3 receptors by the natural agonist hormone prostaglandin E2 (PGE2). Increasing concentrations of antagonist reduce the amount of calcium that a given concentration of PGE2 can mobilise. The net effect is to displace the PGE2 concentration-effect curve to higher concentrations of PGE2. The amount of calcium produced is assessed using a calcium-sensitive fluorescent dye such as Fluo-4, AM and a suitable instrument such as a Fluorimetric Imaging Plate Reader (FLIPR). Increasing amounts of [Ca^2+]i produced by receptor activation increase the amount of fluorescence produced by the dye and give rise to an increasing signal. The signal may be detected using the FLIPR instrument and the data generated may be analysed with suitable curve-fitting software.
(§3) The human EP1 or EP3 calcium mobilisation assay (hereafter referred to as ‘the calcium assay’) utilises Chinese hamster ovary-K1 (CHO-K1) cells into which a stable (pCIN; BioTechniques 20(1996): 102-110) vector containing either EP1 or EP3 cDNA has previously been transfected. Cells are cultured in suitable flasks containing culture medium such as DMEM:F-12 supplemented with 10% v/v foetal calf serum, 2 mM L-glutamine, 0.25 mg/ml geneticin, 100 μM flurbiprofen and 10 μg/ml puromycin.
(§4) For assay, cells are harvested using a proprietary reagent that dislodges cells such as Versene. Cells are re-suspended in a suitable quantity of fresh culture media for introduction into a 384-well plate. Following incubation for 24 hours at 37° C. the culture media is replaced with a medium containing Fluo-4 and the detergent pluronic acid, and a further incubation takes place. Concentrations of compounds are then added to the plate in order to construct concentration-effect curves. This may be performed on the FLIPR in order to assess the agonist properties of the compounds. Concentrations of PGE2 are then added to the plate in order to assess the antagonist properties of the compounds.
(§5) The data so generated may be analysed by means of a computerised curve-fitting routine. The concentration of compound that elicits a half-maximal inhibition of the calcium mobilisation induced by PGE2 (pIC50) may then be estimated.

[1] = target: T2, human prostanoid EP1 receptor (Homo sapiens, UniProt P34995); test: Binding assay for the human prostanoid EP1 receptor (competition with [3H]-PGE2); details: [3H]-PGE2 competition, CHO-K1 cell membranes; averages of a number of experiments
T2 construct: expressed in transfected cells; host or cells: CHO-K1 cells, membrane fraction
T2 sequence (P34995 1-402): T1 sequence (P34995 1-402)
Method: Binding Assay for the Human Prostanoid EP1 Receptor
Competition assay using [^3H]-PGE2
Compound potencies are determined using a radioligand binding assay. In this assay compound potencies are determined from their ability to compete with tritiated prostaglandin E2 ([^3H]-PGE2) for binding to the human EP1 receptor.
This assay utilises Chinese hamster ovary-K1 (CHO-K1) cells into which a stable vector containing the EP1 cDNA has previously been transfected. Cells are cultured in suitable flasks containing culture medium such as DMEM:F-12 supplemented with 10% v/v foetal calf serum, 2 mM L-glutamine, 0.25 mg/ml geneticin, […] puromycin and 10 μM indomethacin.
Cells are detached from the culture flasks by incubation in calcium and magnesium free phosphate buffered saline containing 1 mM disodium ethylenediaminetetraacetic acid (Na2EDTA) and 10 μM indomethacin for 5 min. The cells are isolated by centrifugation at 250×g for 5 mins and suspended in an ice cold buffer such as 50 mM Tris, 1 mM Na2EDTA, 140 mM NaCl, 10 μM indomethacin (pH 7.4). The cells are homogenised using a Polytron tissue disrupter (2×10s burst at full setting), centrifuged at 48,000×g for 20 mins and the pellet containing the membrane fraction is washed (optional) three times by suspension and centrifugation at 48,000×g for 20 mins. The final membrane pellet is suspended in an assay buffer such as 10 mM 2-[N-morpholino]ethanesulphonic acid, 1 mM Na2EDTA,10 mM MgCl2 (pH 6). Aliquots are frozen at −80° C. until required.
For the binding assay the cell membranes, competing compounds and [^3H]-PGE2 (3 nM final assay concentrations are incubated in a final volume of 100 μl for 30 min at 30° C. All reagents are prepared in assay buffer. Reactions are terminated by rapid vacuum filtration over GF/B filters using a Brandell cell harvester. The filters are washed with ice cold assay buffer, dried and the radioactivity retained on the filters is measured by liquid scintillation counting in Packard TopCount scintillation counter.
The data are analysed using non linear curve fitting techniques to determine the concentration of compound producing 50% inhibition of specific binding (IC50).

human EP3 receptor = target: T3, human EP3 receptor (Homo sapiens, UniProt P43115); test: human EP3 calcium mobilisation assay (FLIPR, CHO-K1 cells); assay type: cell-based; details: antagonism of PGE2-induced calcium mobilisation, CHO-K1 cells expressing EP3; averages of a number of experiments
T3 construct: expressed in transfected cells; host or cells: CHO-K1 cells, pCIN vector
T3 sequence (P43115 1-390): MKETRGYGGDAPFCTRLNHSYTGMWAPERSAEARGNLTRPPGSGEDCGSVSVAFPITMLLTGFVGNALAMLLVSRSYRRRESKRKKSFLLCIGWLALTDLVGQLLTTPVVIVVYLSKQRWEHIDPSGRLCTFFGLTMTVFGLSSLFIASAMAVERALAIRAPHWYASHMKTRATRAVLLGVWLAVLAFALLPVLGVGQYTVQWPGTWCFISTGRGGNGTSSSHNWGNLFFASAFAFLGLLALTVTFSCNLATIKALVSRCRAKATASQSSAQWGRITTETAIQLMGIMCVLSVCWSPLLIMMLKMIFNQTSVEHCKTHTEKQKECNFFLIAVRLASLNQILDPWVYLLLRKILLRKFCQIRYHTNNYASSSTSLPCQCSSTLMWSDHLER
Method: as §1, §2, §3, §4, §5

Structure (SMILES): CC(C)Cc1cn(-c2cccc(C(=O)O)c2)c2cc(Cl)ccc12 [Example 14, 3-[6-Chloro-3-(2-methylpropyl)-1H-indol-1-yl]benzoic acid]
- functional pKi (human EP1 receptor): ≥ 6.0
- pIC50 [1]: ≥ 6
- functional pKi (human EP3 receptor): ≤ 6.7

Structure (SMILES): CC(C)Cc1cn(-c2nc(CC(=O)O)cs2)c2cc(Cl)ccc12 [Example 15, {2-[6-Chloro-3-(2-methylpropyl)-1H-indol-1-yl]-1,3-thiazol-4-yl}acetic acid]
- functional pKi (human EP1 receptor): ≥ 6.0
- pIC50 [1]: ≥ 6
- functional pKi (human EP3 receptor): ≤ 6.7

Structure (SMILES): CC(C)Cc1cn(-c2nc(C(=O)O)cs2)c2cc(F)ccc12 [Example 16, 2-[6-Fluoro-3-(2-methylpropyl)-1H-indol-1-yl]-1,3-thiazole-4-carboxylic acid]
- functional pKi (human EP1 receptor): ≥ 6.0
- pIC50 [1]: ≥ 6
- functional pKi (human EP3 receptor): ≤ 6.7

Structure (SMILES): CC(C)Cc1cn(-c2ccc(C(=O)O)o2)c2cc(Cl)ccc12 [Example 18, 5-[6-Chloro-3-(2-methylpropyl)-1H-indol-1-yl]-2-furancarboxylic acid]
- functional pKi (human EP1 receptor): ≥ 6.0
- pIC50 [1]: ≥ 6
- functional pKi (human EP3 receptor): ≤ 6.7

Structure (SMILES): CC(C)Cc1cn(-c2cccc(C(=O)O)n2)c2cc(Cl)ccc12 [Example 19, 6-[6-Chloro-3-(2-methylpropyl)-1H-indol-1-yl]-2-pyridinecarboxylic acid]
- functional pKi (human EP1 receptor): ≥ 6.0
- pIC50 [1]: ≥ 6
- functional pKi (human EP3 receptor): ≤ 6.7

Structure (SMILES): CCc1cn(-c2nc(C(=O)O)cs2)c2cc(Cl)ccc12 [Example 20, 2-(6-Chloro-3-ethyl-1H-indol-1-yl)-1,3-thiazole-4-carboxylic acid]
- functional pKi (human EP1 receptor): ≥ 6.0
- pIC50 [1]: ≥ 6
- functional pKi (human EP3 receptor): ≤ 6.7

Structure (SMILES): CC(C)Cc1cn(-c2ncc(C(=O)O)s2)c2cc(Cl)ccc12 [Example 21, 2-[6-Chloro-3-(2-methylpropyl)-1H-indol-1-yl]-1,3-thiazole-5-carboxylic acid]
- functional pKi (human EP1 receptor): ≥ 6.0
- pIC50 [1]: ≥ 6
- functional pKi (human EP3 receptor): ≤ 6.7

Structure (SMILES): CC(C)Cc1cn(-c2ccc(C(=O)O)s2)c2cc(Cl)ccc12 [Example 22, 5-[6-Chloro-3-(2-methylpropyl)-1H-indol-1-yl]-2-thiophenecarboxylic acid]
- functional pKi (human EP1 receptor): ≥ 6.0
- pIC50 [1]: ≥ 6
- functional pKi (human EP3 receptor): ≤ 6.7

Structure (SMILES): CC(C)Cc1cn(-c2nc(C(=O)NS(=O)(=O)c3ccccc3)cs2)c2cc(Cl)ccc12 [Example 23, 2-[6-Chloro-3-(2-methylpropyl)-1H-indol-1-yl]-N-(phenylsulfonyl)-1,3-thiazole-4-carboxamide]
- functional pKi (human EP1 receptor): ≥ 6.0
- pIC50 [1]: ≥ 6
- functional pKi (human EP3 receptor): ≤ 6.7

Structure (SMILES): Cc1ccc2c(CC(C)C)cn(-c3nc(C(=O)O)cs3)c2c1 [Example 24]
- functional pKi (human EP1 receptor): ≥ 6.0
- pIC50 [1]: ≥ 6
- functional pKi (human EP3 receptor): ≤ 6.7
